Measurements published in PubChem BioAssay AID485353 (National Center for Advancing Translational Sciences (NCATS), 2010).
The whole screen tested about 330,000 compounds, of which about 610 (0.18%) were called active. This list was built around the results that the source calls inconclusive (neither active nor inactive); the mix of calls is not that of the screen. Calls come from the whole dose curve. Potencies of inconclusive entries are doubtful fits and often do not repeat.

Assay: qHTS of Yeast-based Assay for SARS-CoV PLP; note: nearly all actives have a fitted effect of over 55% in size; for activity, positive = growth rescue: 0% is about no effect
Settings: S. cerevisiae expressing SARS-CoV PLpro; Potency: growth rescue; activity, positive = growth rescue: at 32.9 µM (top of the series)
Potency is the fitted concentration of half-maximal effect.

SMILES	Potency	activity, positive = growth rescue
Cc1ccc2c(COC(=O)c3n[nH]c4ccccc34)cc(=O)oc2c1	inconclusive: 20 µM [activator, single point]	
Cn1c(SCC(=O)c2ccc3c(c2)OCO3)nnc1C1COc2ccccc2O1 (configuration not stated)		inactive: 13.9%
CCOC(=O)c1cnc2c(C)c(C)ccc2c1NCCN1CCOCC1		inactive: -3.37%
CCc1nnc(NS(=O)(=O)c2ccc(NC(=S)NC(=O)c3ccc(F)cc3)cc2)s1	inconclusive: 5.01 µM [activator, partial curve]	
Cc1ccc(Cl)cc1N1CCN(C(=O)CCCn2c(=O)c3cccn3c3cccnc32)CC1	inconclusive: 3.16 µM [activator, single point]	
CCCN(CCC)Cc1c(C(=O)N/N=C/c2ccncc2)nnn1-c1nonc1N		inactive: 10.5%
CN(C)C(=O)c1ccc(-c2nnc(NCc3ccccc3)c3ccccc23)cc1	inconclusive: 5.62 µM [activator, partial curve, poor fit]	
Cc1cc(C)c(NC(=O)CNC(=O)COC(=O)/C=C/c2cccs2)c(C)c1	inconclusive: 20 µM [activator, single point]	
CCC1(C)Cc2nc3[nH]c(=S)n(-c4ccc(C)cc4)c(=O)c3cc2CO1 (configuration not stated)		inactive: 9.71%
COc1ccc(CCNC(=O)CC2(CC3=NS(=O)(=O)c4ccccc4N3)CCCC2)cc1OC		inactive: -3.45%
O=C1[C@@H]2Cc3c([nH]c4ccccc34)C(c3cccc([N+](=O)[O-])c3)N2C(=O)CN1CCCO (some centres not stated)		inactive: -0.568%
Cc1c(OCC(=O)NCCN2CCOCC2)ccc2c1oc(=O)c1ccccc12	inconclusive: 0.447 µM [activator, full curve]	
CC1CCN(c2ccc3nnc(CCC(=O)N4CCN(c5ccc(F)cc5)CC4)n3n2)CC1	inconclusive: 0.794 µM [activator, full curve]	
C/C(=N\c1nc2ccccc2n1C)c1cc(Cl)ccc1O	inconclusive: 10 µM [activator, single point]	
Cc1cccc(OCC(=O)Nc2ccc3c(c2)nc(CCN2CCN(C)CC2)n3C)c1	inconclusive: 3.55 µM [activator, single point]	
CCN1C[C@@H]2[C@@H]3C(=O)N(Cc4ccccc4)C(=O)[C@@H]3[C@](Cc3ccccc3)(C(=O)OC)N2C1=NC1CCCCC1	inconclusive: 20 µM [activator, single point]	
CCCCNC(=S)NNc1c(Cl)cc(Cl)cc1Cl		inactive: 14.5%
Clc1ccc(-c2nc3ncccn3c2Nc2ccc3c(c2)OCCO3)cc1	inconclusive: 4.47 µM [activator, single point]	
O=C(NCc1ccc(-c2csnn2)cc1)C1CC1		inactive: 1.02%
Cc1cnc(CN2CCc3c([nH]c4ccccc34)C2CC(C)C)[nH]1 (configuration not stated)		inactive: -1.71%
O=C(Nc1ccccc1C(=O)NCc1cccnc1)c1ccccc1Cl	inconclusive: 3.98 µM [activator, single point]	
CCOC(=O)c1ccccc1NC(=O)/C=C/C(=O)O	inconclusive: 4.47 µM [activator, partial curve]	
COc1ccc(CNCCC(c2ccc(OC(C)C)cc2)c2ccccc2OC)cc1 (configuration not stated)		inactive: -1.45%
Cc1ccc(NC(=O)CCC(=O)N2CCC(C)CC2)c([N+](=O)[O-])c1	inconclusive: 20 µM [activator, single point]	

SMILES	Potency	activity, positive = growth rescue
Cc1cc(Br)c(OCc2ccc(C(=O)N/N=C3\CC(=O)CC(C)(C)C3)cc2)c(Br)c1	inconclusive: 10 µM [activator, single point]	
Cc1cccc(OCC(=O)Nc2ccc(CN3CCOCC3)cc2)c1C	inconclusive: 0.447 µM [activator, full curve]	
Cc1onc(-c2ccccc2Cl)c1C(=O)NCc1cccnc1	inconclusive: 3.55 µM [activator, single point]	
CCCCn1c(SCC(=O)Nc2cc(C)on2)nnc1-c1cccs1		inactive: 1.76%
CCN(c1ccccc1)S(=O)(=O)c1ccc(C(=O)Nc2nnc(CSC)o2)cc1	inconclusive: 20 µM [activator, single point]	
COc1ccc(Cn2c(CCC(=O)O)nc3cccnc32)cc1	inconclusive: 0.891 µM [activator, full curve, poor fit]	
O=C(NCc1cccnc1)c1ccc(-c2cccc(Cl)c2Cl)o1		inactive: -2.2%
COCc1ccc(C(=O)N2CCCC(N(C)CCc3ccc(OC)c(OC)c3)C2)s1 (configuration not stated)	inconclusive: 0.355 µM [activator, full curve, poor fit]	
OC(COc1cc(Cl)c(Cl)cc1Cl)CN1CCN(c2ncccn2)CC1 (configuration not stated)	inconclusive: 4.47 µM [activator, single point]	
CC(C)c1cc(C(=O)N/N=C/c2ccco2)n[nH]1		inactive: -10.6%
CCN1C(=O)C(=C/C=C/c2ccco2)C(=O)N(CC)C1=S	inconclusive: 15.8 µM [activator, single point]	
O=C(CSc1nnc(COc2ccc(F)cc2)o1)N1CCCCC1		inactive: -0.409%
CSc1ccccc1OCc1cc(C(=O)NCCC2=CCCCC2)no1		inactive: -6.93%
CNC(=S)Nc1cccc(C(=O)O)c1		inactive: -0.273%
Cc1c(Cl)cccc1NC(=S)NCc1cccs1	active: 14.1 µM	
CCCC(=O)Nc1ccc(C(=O)NCCCn2ccnc2)cc1	inconclusive: 15.8 µM [activator, single point]	
Cn1c(-c2sccc2OCc2ccccc2)n[nH]c1=S	inconclusive: 3.55 µM [activator, partial curve, poor fit]	
COc1cccc(CCC(=O)O)c1OC	inconclusive: 3.16 µM [activator, single point]	
CCOC(=O)c1n[nH]c2ccccc12		inactive: -2.95%
O=C(NC(=S)N1CCCCC1)C12CC3CC(CC(C3)C1)C2	inconclusive: 7.08 µM [activator, partial curve]	
CCOC(=O)c1cc(=O)c2ccc(OCC(=O)Nc3ccc(F)cc3)cc2o1		inactive: 0.594%
C=CCC(NCc1ccco1)c1ccc(OC)cc1 (configuration not stated)	inconclusive: 20 µM [activator, single point]	
COc1ccc(C2N(c3cc(C)on3)C(=O)C3CCCN32)cc1OC (configuration not stated)	inconclusive: 0.891 µM [activator, full curve]	
Cc1ccc(C(=O)NNC(=O)C2CCN(c3nc(C)cc(C)n3)CC2)cc1	inconclusive: 11.2 µM [activator, single point]	

SMILES	Potency	activity, positive = growth rescue
Cc1ccc(C(=O)NC2CC3CCC(C2)N3Cc2ccco2)cc1 (configuration not stated)		inactive: -3.47%
CC[C@]12c3[nH]c4ccc(OC)cc4c3CCN1C(=O)C(CC(=O)NCCc1ccccn1)C[C@@H]2C(=O)N1CCN(C(=O)c2ccco2)CC1 (some centres not stated)		inactive: 1.76%
CCOC(=O)c1ccc(NC(=O)C2CCCN(S(=O)(=O)c3ccc(F)cc3)C2)cc1 (configuration not stated)		inactive: -10.8%
CC1CCN(S(=O)(=O)c2ccc(C(=O)Nc3ccccn3)cc2)CC1		inactive: 2.67%
c1ccc(CN2CCOCC2)cc1	inconclusive: 2.24 µM [activator, single point]	
CCC1CO/C(=C(\C(Cl)=C(Cl)Cl)[N+](=O)[O-])N1Cc1ccc(Cl)nc1 (configuration not stated)		inactive: 0.571%
S=C(Nc1ccccc1)Nc1nc2ccccc2n1CCOc1ccc(Br)cc1	inconclusive: 3.98 µM [activator, full curve]	
O=C(Nc1ccc(S(=O)(=O)NCc2ccco2)cc1)c1ccncc1		inactive: 0.518%
COc1ccc2nc(C)cc(SCC(=O)NNC(=O)COc3ccc(C)cc3)c2c1	inconclusive: 22.4 µM [activator, single point]	
Cc1ccc(NC(=O)CSc2nnnn2C)cc1S(=O)(=O)N(C)C	inconclusive: 1.78 µM [activator, full curve, poor fit]	
COc1cccc(-c2nc(-c3ccccn3)no2)c1	inconclusive: 3.98 µM [activator, single point]	
CCNC(=S)N/N=C(\C)c1cccc(C(F)(F)F)c1	inconclusive: 4.47 µM [activator, partial curve]	
O=c1[nH]nc(CNc2ccc(C(F)(F)F)cc2)c2ccccc12	inconclusive: 12.6 µM [activator, partial curve]	
COc1ccccc1N(C)S(=O)(=O)c1ccc(C(=O)NC(C)c2ccccc2)cc1 (configuration not stated)		inactive: -4.65%
COc1cccc(C(=O)COc2ccc3c(C)c(Cc4ccccc4)c(=O)oc3c2)c1	inconclusive: 2.51 µM [activator, partial curve]	
COc1ccc(NC(=O)N2CCC(O)(c3cccnc3)CC2)c(OC)c1	inconclusive: 4.47 µM [activator, single point]	
O=C(Cn1ncc2ccccc21)N1CCc2ccccc21		inactive: 6.91%
CC(=O)Nc1cccc(NC(=O)CSc2nccn2Cc2ccccc2)c1	inconclusive: 15.8 µM [activator, single point]	
O=C(NC(=S)Nc1nc(-c2ccc(Br)cc2)cs1)c1cccnc1	inconclusive: 3.98 µM [activator, single point]	
O=[N+]([O-])c1ccc(/C=N/N/C(=N/c2ccccn2)c2ccccn2)cc1	inconclusive: 4.47 µM [activator, single point]	
CC(=O)c1ccc(NC(=O)c2cn(-c3ccccc3)nc2-c2ccncc2)cc1	inconclusive: 15.8 µM [activator, single point]	
O=C(CCCn1nnnc1CN1CCOCC1)N1CCN(c2ccccc2F)CC1	inconclusive: 0.631 µM [activator, full curve]	
CC(C)c1cc(C(=O)NCc2cccnc2)no1	inconclusive: 14.1 µM [activator, partial curve]	
Cc1ccc2nc(-c3ccc(SCC(=O)Nc4cc(C)on4)nc3)[nH]c2c1	inconclusive: 14.1 µM [activator, single point]	

5 records drawn at random from those above, as already listed:
SMILES	Potency	activity, positive = growth rescue
CCN1C[C@@H]2[C@@H]3C(=O)N(Cc4ccccc4)C(=O)[C@@H]3[C@](Cc3ccccc3)(C(=O)OC)N2C1=NC1CCCCC1	inconclusive: 20 µM [activator, single point]	
CC[C@]12c3[nH]c4ccc(OC)cc4c3CCN1C(=O)C(CC(=O)NCCc1ccccn1)C[C@@H]2C(=O)N1CCN(C(=O)c2ccco2)CC1 (some centres not stated)		inactive: 1.76%
O=C(CSc1nnc(COc2ccc(F)cc2)o1)N1CCCCC1		inactive: -0.409%
O=[N+]([O-])c1ccc(/C=N/N/C(=N/c2ccccn2)c2ccccn2)cc1	inconclusive: 4.47 µM [activator, single point]	
S=C(Nc1ccccc1)Nc1nc2ccccc2n1CCOc1ccc(Br)cc1	inconclusive: 3.98 µM [activator, full curve]	
